In US9233191B2, “Drug-coated medical devices” (Innora GmbH, priority 2011, dated 2016):

Assay: Maximum force required to withdraw tight PTFE tubes from coated balloons (friction)
Conditions: lubricant layer 0.33 μg/mm^2 on balloons coated with paclitaxel 3.3 μg/mm^2; tight PTFE tube withdrawn after 24 h

Magnesium caprylate
Maximum force (N): 0.12 ± 0.03 N

Magnesium stearate
Maximum force (N): 0.28 ± 0.20 N

Magnesium palmitate
Maximum force (N): 0.24 ± 0.11 N

Magnesium oleate
Maximum force (N): 0.16 ± 0.10 N

Zinc stearate
Maximum force (N): 0.30 ± 0.18 N

Calcium stearate
Maximum force (N): 0.36 ± 0.09 N
